These are yes or no findings as the source states them, for the method shown. Some binding calls cover weakened binding; strength is not graded here.
Target: SIN1 (endogenous, HEK293 cells) (human) (UniProt Q9BPZ7)
Experiment: immunoprecipitation of endogenous RhoA with anti-RhoA antibodies from HEK293 cells, Western blot (FIG. 1D; unaffected in K-Ras-KO cells, FIG. 1E)

Protein sequences, listed by entry. Tags and fused reporters are not part of them. Residues count along the entry.
UniProt P61586, residues 1-190: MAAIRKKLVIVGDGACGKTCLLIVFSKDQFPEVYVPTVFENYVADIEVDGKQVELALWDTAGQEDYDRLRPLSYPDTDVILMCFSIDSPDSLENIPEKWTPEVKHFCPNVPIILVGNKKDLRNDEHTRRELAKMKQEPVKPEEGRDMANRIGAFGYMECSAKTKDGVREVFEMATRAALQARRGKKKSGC

binding: binds
Substance: RhoA (endogenous, HEK293 cells) (from UniProt P61586 1-190)
